Measurements taken from publication PMC8301362.
No constants are given. Whether binding was seen depends on the method and setting. In cells and extracts the contact can be indirect. Some binding calls cover weakened binding; strength is not graded here.

T1: Caveolin-1 (CAV1) (mouse (endogenous in C2C12)) (UniProt P49817)
T1 sequence: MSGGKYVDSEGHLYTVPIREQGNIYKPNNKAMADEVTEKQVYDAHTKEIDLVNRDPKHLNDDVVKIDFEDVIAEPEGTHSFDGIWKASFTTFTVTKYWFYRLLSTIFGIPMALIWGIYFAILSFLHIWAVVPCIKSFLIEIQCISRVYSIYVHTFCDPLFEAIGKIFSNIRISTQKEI

T2: Myocilin (MYOC) (mouse (endogenous in C2C12)) (UniProt O70624)
T2 sequence: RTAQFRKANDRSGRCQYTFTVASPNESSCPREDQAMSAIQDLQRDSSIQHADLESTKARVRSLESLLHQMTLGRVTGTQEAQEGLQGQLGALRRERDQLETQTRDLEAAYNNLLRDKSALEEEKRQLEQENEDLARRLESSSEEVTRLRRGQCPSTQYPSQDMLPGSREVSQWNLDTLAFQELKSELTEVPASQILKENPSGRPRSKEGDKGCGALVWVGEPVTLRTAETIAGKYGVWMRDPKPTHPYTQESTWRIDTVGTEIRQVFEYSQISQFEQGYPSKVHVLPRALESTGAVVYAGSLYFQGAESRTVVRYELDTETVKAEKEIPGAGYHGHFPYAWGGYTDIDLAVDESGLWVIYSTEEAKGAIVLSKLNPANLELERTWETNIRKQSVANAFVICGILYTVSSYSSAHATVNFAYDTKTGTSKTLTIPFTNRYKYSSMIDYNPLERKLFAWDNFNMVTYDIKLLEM


Columns and labels:
[1] = target: T1, Caveolin-1 (CAV1) (mouse (endogenous in C2C12)); assay: co-IP; lysate (RIPA) of C2C12 cells on day 7 of differentiation; immunoprecipitation with anti-MYOC or anti-CAV1 antibody, protein A + G agarose beads, Western blotting for the other protein; endogenous proteins
[2] = target: T2, Myocilin (MYOC) (mouse (endogenous in C2C12)); assay: as above

| binding [1] | binding [2] | Binder |
| --- | --- | --- |
| binds |  | Myocilin (MYOC) (protein, UniProt O70624 19-490) RTAQFRKANDRSGRCQYTFTVASPNESSCPREDQAMSAIQDLQRDSSIQHADLESTKARVRSLESLLHQMTLGRVTGTQEAQEGLQGQLGALRRERDQLETQTRDLEAAYNNLLRDKSALEEEKRQLEQENEDLARRLESSSEEVTRLRRGQCPSTQYPSQDMLPGSREVSQWNLDTLAFQELKSELTEVPASQILKENPSGRPRSKEGDKGCGALVWVGEPVTLRTAETIAGKYGVWMRDPKPTHPYTQESTWRIDTVGTEIRQVFEYSQISQFEQGYPSKVHVLPRALESTGAVVYAGSLYFQGAESRTVVRYELDTETVKAEKEIPGAGYHGHFPYAWGGYTDIDLAVDESGLWVIYSTEEAKGAIVLSKLNPANLELERTWETNIRKQSVANAFVICGILYTVSSYSSAHATVNFAYDTKTGTSKTLTIPFTNRYKYSSMIDYNPLERKLFAWDNFNMVTYDIKLLEM |
|  | binds | Caveolin-1 (CAV1) (protein, UniProt P49817 1-178) MSGGKYVDSEGHLYTVPIREQGNIYKPNNKAMADEVTEKQVYDAHTKEIDLVNRDPKHLNDDVVKIDFEDVIAEPEGTHSFDGIWKASFTTFTVTKYWFYRLLSTIFGIPMALIWGIYFAILSFLHIWAVVPCIKSFLIEIQCISRVYSIYVHTFCDPLFEAIGKIFSNIRISTQKEI |
